Patent US8354403B2, “Pyrrolidine derived beta 3 adrenergic receptor agonists” (Merck Sharp & Dohme Corp., priority 2009, dated 2013)
The structures given here were assigned with low confidence; some may be wrong.

The chains behind the UniProt entries cited, without tags or fusion partners.
UniProt P13945, whole entry: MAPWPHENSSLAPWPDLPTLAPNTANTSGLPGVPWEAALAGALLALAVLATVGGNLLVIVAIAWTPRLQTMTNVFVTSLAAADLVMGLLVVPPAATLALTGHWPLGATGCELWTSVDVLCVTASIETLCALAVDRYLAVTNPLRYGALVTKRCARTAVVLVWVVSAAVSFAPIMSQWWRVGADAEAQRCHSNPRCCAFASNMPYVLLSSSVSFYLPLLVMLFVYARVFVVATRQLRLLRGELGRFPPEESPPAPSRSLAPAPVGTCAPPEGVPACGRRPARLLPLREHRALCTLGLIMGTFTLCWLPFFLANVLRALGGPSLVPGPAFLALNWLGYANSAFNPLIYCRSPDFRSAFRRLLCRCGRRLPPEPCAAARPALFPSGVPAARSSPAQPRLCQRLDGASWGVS

target: human β3 adrenergic receptor (Homo sapiens, UniProt P13945); assay: Beta-3 agonist in vitro functional assay: cAMP production (LANCE TR-FRET) in CHO cells stably transfected with the cloned β3 receptor; type: cell-based; conditions: read-out: Human β3 agonist functional activity; Table 4; cAMP, CHO cells

EC50	SMILES
100 to 999 nM	O=C(c1ccc(C[C@@H]2CC[C@H]([C@H](O)c3ccccc3)N2)cc1)N1CC=CC(n2nccn2)C1 (stereo partly drawn)
100 to 999 nM	O=C(c1ccc(C[C@@H]2CC[C@H]([C@H](O)c3ccccc3)N2)cc1)N1CCCC2(CC3CCCCN3C2=O)C1 (stereo partly drawn)
100 to 999 nM	O=C(c1ccc(C[C@@H]2CC[C@H]([C@H](O)c3ccccc3)N2)cc1)N1CCC(n2cccn2)C1 (stereo partly drawn)
100 to 999 nM	O=C(c1ccc(C[C@@H]2CC[C@H]([C@H](O)c3ccccc3)N2)cc1)N1CC=CC(n2ccnn2)C1 (stereo partly drawn)
10 to 99.9 nM	O=C(c1ccc(C[C@@H]2CC[C@H]([C@H](O)c3ccccc3)N2)cc1)N1CCCC(S(=O)(=O)c2ccc(Br)cc2)C1 (stereo partly drawn)

same assay, conditions: read-out: Human β3 agonist functional activity; Table 5; cAMP, CHO cells

EC50	SMILES
100 to 999 nM	O=C(c1ccc(C[C@@H]2CC[C@H]([C@H](O)c3ccccc3)N2)cc1)N1CCC(n2nccn2)CC1
1 to 9.9 nM	Cc1ccc(S(=O)(=O)C2CCN(C(=O)c3ccc(C[C@@H]4CC[C@H]([C@H](O)c5ccccc5)N4)cc3)CC2)cc1
100 to 999 nM	O=C(c1ccc(C[C@@H]2CC[C@H]([C@H](O)c3ccccc3)N2)cc1)N1CCC(c2nc3ccccc3[nH]2)CC1
10 to 99.9 nM	CC(C)n1nnc(C2CCN(C(=O)c3ccc(C[C@@H]4CC[C@H]([C@H](O)c5ccccc5)N4)cc3)CC2)n1

same assay, conditions: read-out: Human β3 agonist functional activity; Table 6; cAMP, CHO cells

EC50	SMILES
1 to 9.9 nM	Cn1nnc([C@H]2[C@@H]3CN(C(=O)c4ccc(C[C@@H]5CC[C@H]([C@H](O)c6ccccc6)N5)cc4)C[C@@H]32)n1
10 to 99.9 nM	CC(C)n1ncc([C@H]2[C@@H]3CN(C(=O)c4ccc(C[C@@H]5CC[C@H]([C@H](O)c6ccccc6)N5)cc4)C[C@@H]32)n1

same assay, conditions: read-out: Human β3 agonist functional activity; Table 8; Beta-3 agonist in vitro functional assay

EC50	SMILES
10 to 99.9 nM	O=C1OC2(CCN(C(=O)c3ccc(C[C@@H]4CC[C@H]([C@H](O)c5ccccc5)N4)cc3)CC2)CC1c1ccccc1 (stereo partly drawn)
100 to 999 nM	CC(C)(C)N1CCC2(CCN(C(=O)c3ccc(C[C@@H]4CC[C@H]([C@H](O)c5cccnc5)N4)cc3)CC2)C1=O

same assay, conditions: read-out: Human β3 agonist functional activity; Table 9; Beta-3 agonist in vitro functional assay

EC50	SMILES
100 to 999 nM	O=C(c1ccc(C[C@@H]2CC[C@H]([C@H](O)c3ccccc3)N2)cc1)N1CCN(c2ccc(F)cc2)CC1
1 to 9.9 nM	O=C(c1ccc(C[C@@H]2CC[C@H]([C@H](O)c3ccccc3)N2)cc1)N1CCN(Cc2ccn(-c3ccccn3)n2)CC1

same assay, conditions: read-out: Human β3 agonist functional activity; Table 12; human β3 functional activity given as ranges

EC50	SMILES
1 to 9.9 nM	CC(c1ncc2ccccc2n1)N1CCN(C(=O)c2ccc(C[C@@H]3CC[C@H]([C@H](O)c4ccccc4)N3)cc2)CC1 (single isomer, unassigned)
1 to 9.9 nM	O=C(c1ccc(C[C@@H]2CC[C@H]([C@H](O)c3ccccc3)N2)cc1)N1CCN(C2COc3cccnc32)CC1 (single isomer, unassigned)
1 to 9.9 nM	CC(c1cscn1)N1CCN(C(=O)c2ccc(C[C@@H]3CC[C@H]([C@H](O)c4ccccc4)N3)cc2)CC1 (single isomer, unassigned)
